# According to PubChem BioAssay AID2685 (National Center for Advancing Translational Sciences (NCATS), 2010):
# Some of the results follow. The main result of the screen is listed elsewhere. These columns were measured beside it and carry no call. Most of these compounds were active or inconclusive in the main read-out, so they are no random draw. The note in brackets gives the kind of curve behind each potency; many fits are weak.
# Experiment: qHTS Assay for Lipid Storage Modulators in Drosophila S3 Cells;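 on cell number change: cells counted by Cell Tracker Red CMTPX staining in the red channel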
# Details: BODIPY lipid droplet fluorescence, 18-24 h; for cell number change: measured here: cell count max response, cells fed with added oleic acid
# Outline: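 Drosophila S3 cells got compounds at several concentrations plus oleic acid (400 uM solution). Laser-scanning cytometry with 488 nm excitation read lipid droplets at 500-530 nm and cells at 575-640 nm. Percent activity was relative to 20 uM Triacsin C.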
# [1] = measured here: lipid fluorescence (Fed channel) AC50, cells fed with added oleic acid
# [2] = measured here: cell number channel AC50, cells fed with added oleic acid
smiles,measurement,setting,value
CCn1cnnc1SCC(=O)NCC1COc2ccccc2O1 (configuration not stated),cell number change,,-12.6%
same,AC50,[1],"1.46 µM [falling, full curve]"
CCOC(=O)N1CCN(c2ccnc3cc(Cl)ccc23)CC1,cell number change,,30.3%
same,AC50,[2],"20.6 µM [rising, partial curve, poor fit]"
CCOC(=O)C1CCN(C(=O)c2ccc(OCC(=O)Nc3cccc(C(F)(F)F)c3)cc2)CC1,cell number change,,-28.7%
same,AC50,[1],"20.6 µM [falling, single point]"
c1ccc(C[C@H]2CNCCN2CCCCC2CCCCC2)cc1,cell number change,,-24.3%
same,AC50,[2],"0.731 µM [falling, full curve, poor fit]"
same,AC50,[1],"1.03 µM [falling, partial curve]"
O=C1CN(c2ccccc2Cl)C(=O)CN1c1ccccc1Cl,cell number change,,2.8%
COc1ccc(/C=C2\SC(=S)N(CCC(=O)NC3=NCCS3)C2=O)cc1OC,cell number change,,-5.62%
same,AC50,[1],"3.66 µM [rising, full curve]"
CCOc1ccc(Nc2cc(=O)n(C)c(=O)n2C)cc1,cell number change,,16.8%
same,AC50,[1],"6.51 µM [rising, single point]"
CC(OC(=O)/C=C/c1ccccc1)C(=O)NC1CCCCC1C (configuration not stated),cell number change,,-0.141%
same,AC50,[1],"29.1 µM [falling, single point]"
COC(=O)C1CCN(C2=C(NS(=O)(=O)c3ccc(Cl)cc3)C(=O)c3ccccc3C2=O)CC1,cell number change,,-58.8%
same,AC50,[2],"29.1 µM [falling, single point]"
same,AC50,[1],"18.4 µM [falling, partial curve]"
Cc1ccc(S(=O)(=O)N2CCN(C(=O)CCC(=O)OCC(=O)Nc3cccc(C#N)c3)CC2)cc1,cell number change,,43%
same,AC50,[2],"16.4 µM [rising, single point]"
same,AC50,[1],"29.1 µM [rising, single point]"
CC(C)OCCCNC(=S)Nc1ccc2nc3n(c(=O)c2c1)CCCCC3,AC50,[2],"6.51 µM [rising, single point]"
same,AC50,[1],"2.06 µM [rising, partial curve]"
Cc1ccc(S(=O)(=O)NC(CC(C)C)C(=O)NCCCn2nc(C)cc2C)cc1 (configuration not stated),cell number change,,-4.15%
same,AC50,[1],"0.231 µM [rising, full curve]"
Oc1cccc(/C=N/Nc2cc(N3CCCC3)nc(N3CCCC3)n2)c1,cell number change,,6.31%
same,AC50,[1],"8.2 µM [falling, partial curve, poor fit]"
CC(=O)C(C)n1cnc2scc(-c3ccc(C)cc3)c2c1=O (configuration not stated),cell number change,,-6.87%
same,AC50,[1],"29.1 µM [falling, single point]"
O=c1[nH]c(/C=C/c2ccc([N+](=O)[O-])cc2)c([N+](=O)[O-])c(=O)[nH]1,cell number change,,13%
same,AC50,[1],"10.3 µM [rising, partial curve]"

# Some of the entries above in a different format.
smiles	measurement	setting	value
CCOc1ccc(Nc2cc(=O)n(C)c(=O)n2C)cc1	AC50	[1]	6.51 µM [rising, single point]
Oc1cccc(/C=N/Nc2cc(N3CCCC3)nc(N3CCCC3)n2)c1	cell number change		6.31%
